Results from the supplement of paper PMC5949888.
Most values lie at the floor of the assay. Slopes are relative: functional sequences can read slightly below zero.

tested on: Saccharomyces cerevisiae PS128 hsf1 delta, HSF1(1-493) fusion; test: growth estimate (transactivation domain function in HSF1 fusion, heat-shock survival) (a.u. (slope of normalised read count over time)); higher = stronger growth at 37°C, i.e. more transactivation activity; details: library: random library
Procedure: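 Random 60-nt DNA library encoding peptides of up to 20 aa, fused to the C-terminus of yeast HSF1 residues 1-493 (C-terminal TAD deleted) and expressed from the native HSF1 promoter on a CEN plasmid in hsf1-deleted S. cerevisiae PS128. Cells were selected at 37°C on -trp 5-FOA plates for 0, 2, 4, 6 and 8 days and amplicons were sequenced. Growth estimate is the slope of a robust linear fit of total-sum-normalised read counts (normalised to the first time point) over time, using at least 2 replicates. Sequences are classed functional (TAD activity) above a threshold of -0.13, set from stop-codon control sequences.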

Substance	growth estimate
DTLYGPCNGSRFTSSPVH	< -0.25
DTPVLGPRDNRIKDKVVLLS	< -0.25
DTRDDPGGIEST	< -0.25
DTRSSRDPCGSGVFLLLVKA	< -0.25
DTSCRRKH	< -0.25
DTSRSSAALIPAPARVTHYA	< -0.25
DTSVYTNEEPADLHSSYMSW	0.161
DTTRAAGKWRVTRYDRPKGA	< -0.25
DTVPCYRWDGSENRLAQGTL	< -0.25
DVAARTHD	< -0.25
DVCDIRNAWNAGVGWIGATC	< -0.25
DVCVVRRAKRGSDNTHVAGH	< -0.25
DVELRLTAALGSLPRMCGVR	< -0.25
DVFPLGGRDNRSSLASR	< -0.25
DVGGASSVLCV	< -0.25
DVGIKPMFTVWSALALRQHK	< -0.25
DVGPAA	< -0.25
DVHGSGPFCI	< -0.25
DVIRDTV	< -0.25
DVIRR	< -0.25
DVLCRQRLQ	< -0.25
DVLVIKDNM	< -0.25
DVPRRQATNSPGKIKAGTYT	< -0.25
DVRHTLRGSRSPWGLLRYSP	< -0.25
DVRKGKLRESRRQEVD	< -0.25

Substance	growth estimate
DVRSELERQVCRSDLEIAYG	< -0.25
DVRSETV	< -0.25
DVSRCRSALGRTEKP	< -0.25
DVSTRPGYQIPERVGRCGER	< -0.25
DVTPDVGLIWALALYVLVCC	< -0.25
DVVSYINVSGGLCLVFEC	< -0.25
DVWGSK	< -0.25
DVWSARSLIEVHDS	< -0.25
DVYPCLICH	< -0.25
DVYPGPGYMPRFRRRSVPHQ	< -0.25
DWAF	< -0.25
DWF	< -0.25
DWGHSPPSGDTENTFELASL	< -0.25
DWLTIWCARAETSVSRPDPW	< -0.25
DWPDSL	< -0.25
DYIYGKGPSLLNTDEVQTQR	< -0.25
DYLVKPERLWTQRNFRENKS	< -0.25
DYQFQHP	< -0.25
DYRCQGHMGARSLNWTPVFP	< -0.25
DYSGSYAETGGPLGAEIPTS	< -0.25
DYTARGPDGCYHFEQLFNSA	< -0.25
EACIDSTGRGRT	< -0.25
EADTNYSPFCFGILGLHRPT	< -0.25
EADTYESWPGDGHWVWVSPR	< -0.25
EAELGSR	< -0.25

Substance	growth estimate
EARQRIETIGPDKAALCVRA	< -0.25
EARR	< -0.25
EAS	< -0.25
EASNFSGTSMEIAVLERSWT	< -0.25
EASSP	< -0.25
EATRFWGWDLASAPRSYDPP	< -0.25
EAVRSIDNDTRGPFSR	< -0.25
EAWQLRGHP	< -0.25
ECEPWG	< -0.25
ECFPTMPGITVISLPLERRL	< -0.25
ECGGLDFCM	< -0.25
ECGSALSRIASQLDLGGLFA	< -0.25
ECGVGMWTPTVSIGAPNNGT	< -0.25
ECL	-0.25
ECRQARAIYLRLVHPVVIQI	< -0.25
ECVLRLWWGALIVKARVAAC	< -0.25
ECVLSASAVTCGQIVNRPAT	< -0.25
ECYMFH	< -0.25
ECYVQ	< -0.25
ECYVTHKAPPQGGK	< -0.25
EDDTGVPKLDMVELALTDRM	< -0.25
EDFPSGVPKMCLLHPRIGTR	< -0.25
EDGRQC	< -0.25
EDGSAGPDCTLVQKRHS	< -0.25
EDIVNGICREYG	< -0.25

Substance	growth estimate
EDLGFDFY	< -0.25
EDLRTLPLMWPMTGCPSARL	-0.243
EDLTDCPPVLA	< -0.25
EDMKCVGELRMSSFVSFESQ	< -0.25
EDPLSGQTRQGHFGRQGCCS	< -0.25
EDPPI	< -0.25
EDPPTLCAKLRVYNWHMCRA	< -0.25
EDQRVSEPQLIGGLTT	< -0.25
EDRE	< -0.25
EDSYIKAH	< -0.25
EDT	-0.243
EDWDSGDVTA	< -0.25
EEGTYSCGVSLRVG	< -0.25
EEHLQKGFNFHVCQLNQ	< -0.25
EEKIARCLADGRNPLKIIIP	< -0.25
EELDYLKGNPRLYEAVDAHS	< -0.25
EENHRYDP	< -0.25
EERKPAEVGEMCVHVPFL	< -0.25
EEVADTTGFGCGPSDLFTRP	< -0.25
EFAERRRSTTFGGELLCLRA	< -0.25
EFARPRGAGKAGTSEWDVLF	< -0.25
EFCGDRRAYKLREKLEPPFC	-0.227
EFDAQHGQA	< -0.25
EFEGLGGGGTGSVVLVWAAS	< -0.25
EFGIFNRQSPNPG	< -0.25

Substance	growth estimate
EFGNTANAADGLRDFDSMKN	< -0.25
EFHMN	< -0.25
EFLERPGNGWRTHGCLLGLG	< -0.25
EFLLLLPCPAG	< -0.25
EFRSSSVHEAQQ	< -0.25
EFRTEIPTCRAIGQSSDFEN	< -0.25
EFRVLEEWPRFSEWHKLWDS	0.0862
EFSAFVPLCDTSGSGAPIPG	< -0.25
EFTQAAR	< -0.25
EGASCT	< -0.25
EGELGNPLNGIGMMMPVHDT	< -0.25
EGELLESSFTSSLKLAVSRQ	-0.25
EGFTFQVHGESSPRVGVLCP	< -0.25
EGG	< -0.25
EGGIKPLFAKGVVSSADCRC	< -0.25
EGGISMRGSLFYARDVCVSS	< -0.25
EGGLRANLTRACSPGFLSMS	< -0.25
EGGVDVRYDYGPFLGESLSL	0.0824
EGHRVYSGP	< -0.25
EGIASVGMSSP	< -0.25
EGIGFISIHA	< -0.25
EGKAMRLVILDID	< -0.25
EGLCFAYPWTSFEIGNTDCC	< -0.25
EGLL	< -0.25
EGLSRESTILRVQVQIVPWV	< -0.25

Substance	growth estimate
EGMG	< -0.25
EGNTWCV	< -0.25
EGPGF	< -0.25
EGPISRGASIS	< -0.25
EGPTRI	< -0.25
EGPVDGVGR	< -0.25
EGQVWYWRAYHGNMTTN	< -0.25
EGRAFDADRASGHLVTRNAA	< -0.25
EGRAHPSANSGHRSEHSIDL	< -0.25
EGRDASFR	< -0.25
EGRFSIHA	< -0.25
EGRKHSISACFK	< -0.25
EGRKRGVWLE	-0.21
EGRLVSAHILGGKRPGMVAT	< -0.25
EGRRIH	< -0.25
EGRSFHYRRRWRRYLGAT	< -0.25
EGSATKRNQLDASAGVWRCR	< -0.25
EGSDNSVVYISSLRP	< -0.25
EGSGLDVCLATAIGRAYWGW	< -0.25
EGSKAEGHWLLFKQREGSTP	< -0.25
EGSSANASDERLEH	< -0.25
